# Reference: PubChem BioAssay (NCATS)
# This list was built around the results that the source calls inconclusive (neither active nor inactive); the mix of calls is not that of the screen. Entries that show only a call come without a potency. For some of these results: Potencies of inconclusive entries are doubtful fits and often do not repeat. The source made the active and inactive calls. Unless noted, calls come from the whole dose curve; as a rule, active = well fitted curve in the direction sought with a large enough effect; inconclusive = small, poorly fitted or top-dose-only effect, or another doubt; inactive = no such curve, though single readings can be large; an effect the other way counts as inactive or inconclusive.
# Legend:
# [1] = Cell Proliferation Assay against the TMD8 Cell Line (Caspase readout at 16 hrs) (AID 651712); note: potency is the fitted concentration of half-maximal effect
# In short: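 TMD8 cells in RPMI with 5% FBS were treated with compound for 16 h at 37 C, then caspase 3/7 activation was read by Caspase-Glo luminescence. Percent activity was scaled to DMSO (0%) and 9.2 uM bortezomib final (100%).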
# [2] = Cell Proliferation Assay against the TMD8 Cell Line (Caspase readout at 8 hrs) (AID 651713); conditions: TMD8 lymphoma cells, caspase activation luminescence; caspase activation: at 46.1 µM (top of the series)
# In short: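 TMD8 cells in RPMI plus 5% FBS were treated with compound for 8 h at 37C. Caspase 3/7 activation was read by Caspase-Glo luminescence. Percent activity was scaled from DMSO (0%) to 9.2 uM bortezomib final (100%).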
# [3] = qHTS assay for small molecule agonists of the antioxidant response element (ARE) signaling pathway (AID 651741; active = well fitted activation curve with a large enough effect in the signal ratio; inconclusive = small, poorly fitted or top-dose-only effect, or effect the other way, or a change in a side signal; the % refers to the signal ratio); conditions: HepG2 ARE-bla reporter, beta-lactamase FRET ratio, 16 h; activation: at 96 µM (top of the series)
# In short: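 CellSensor ARE-bla HepG2 cells (2,000/well) carrying ARE-driven beta-lactamase, exposed 16 h at 37 C. LiveBLAzer B/G FRET substrate added for 2 h at room temperature; fluorescence intensity read.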
compound,measurement,setting,value
CC=C1NC(=O)[C@H]2CSSCCC=C[C@H](CC(=O)N[C@H](C(C)C)C(=O)N2)OC(=O)[C@H](C(C)C)NC1=O,Potency,[1],"inconclusive: 0.0012 µM [activator, full curve, poor fit]"
Cc1ccc(Nc2nccc(N(C)c3ccc4c(C)n(C)nc4c3)n2)cc1S(N)(=O)=O,Potency,[1],"inconclusive: 33.2 µM [activator, single point]"
same,Potency,[2],inactive
O=C(C=Cc1c(C(=O)O)[nH]c2cc(Cl)cc(Cl)c12)Nc1ccccc1,Potency,[1],inactive
O=C(NCCS(=O)(=O)c1ccc(C(F)(F)F)cn1)c1ccc(Cl)cc1,Potency,[1],inactive
NC(=O)c1cnccn1,activation,[3],inconclusive: 11.8%
Nc1ccc(S(N)(=O)=O)cc1,Potency,[3],inactive
